Reference: PubChem BioAssay AID540276 (National Center for Advancing Translational Sciences (NCATS), 2011)
In all, about 300,000 compounds went through this assay and about 5,400 (1.8%) were called active. The inconclusive results got no clear call from the source; some entries with a clear call stand among them for comparison. Calls come from the whole dose curve; tested in HEK293 cells. Potencies beside an inconclusive call are fits to weak or partial responses and may not hold up.

Assay: qHTS for inhibitors of binding or entry into cells for Marburg Virus
Details: Marburg virus pseudotyped entry inhibition, cell reporter
[1] = activity change, negative = inhibition: at 37.8 µM (top of the series) unless noted
% is set by controls: 0 for no effect and ±100 for the full control effect; potency is the fitted concentration of half-maximal effect.

Cc1ccc(C(=O)O[C@H](C(=O)O)[C@@H](OC(=O)c2ccc(C)cc2)C(=O)O)cc1 (tested in a mixture with another compound)
Potency [1]: inactive

O=C(Nc1ccc2nc(SCC(=O)N3CCCc4ccccc43)sc2c1)c1ccccc1
Potency [1]: inconclusive: 12.6 µM [inhibitor, partial curve, poor fit]

CCc1ccc(OCC(=O)N/N=C/c2cc([N+](=O)[O-])ccc2N2CCOCC2)cc1
Potency [1]: inconclusive: 6.51 µM [inhibitor, partial curve, poor fit]

CC(C)c1ccccc1NC(=O)COc1ccc2c(=O)c(Oc3ccc4ccccc4c3)coc2c1
Potency [1]: inconclusive: 14.6 µM [inhibitor, partial curve, poor fit]

Cc1ccc(N=C2CCCCCN2C)c(C#N)c1
Potency [1]: inactive

CC(C)[C@@H](OCc1ccccc1)[C@H](C)CON=C1[C@H]2CCn3c(=O)n(-c4ccccc4)c(=O)n3[C@@H]2[C@H](O)[C@@H]2O[C@H]12
Potency [1]: inactive

Cc1cc(C)c2c(n1)sc1c(O)cc(=O)[nH]c12
Potency [1]: inactive

CC1(C)Cc2c(sc3c2C(=O)NC(c2cccnc2)N3)CO1 (stereo not given)
Potency [1]: inactive

CC1CCN(CCC(=O)N2CCCc3c2c(=O)oc2ccc(O)cc32)CC1
Potency [1]: inconclusive: 0.092 µM [activator, partial curve, poor fit]

CC(=O)/C=C1/SC(CC(=O)O)C(=O)N1c1ccccc1 (stereo not given)
Potency [1]: inconclusive: 1.46 µM [activator, partial curve, poor fit]

Cc1cccn2c(=O)c3cc(C(N)=S)c(=N)n(CCCOC(C)C)c3nc12
Potency [1]: inconclusive: 6.51 µM [inhibitor, partial curve, poor fit]

O=C(CC1Sc2ccccc2NC1=O)c1ccc(Br)cc1 (stereo not given)
Potency [1]: inactive

CN(C(=S)NC1CCCCC1)C1(c2ccccc2Cl)CCCCC1=O (stereo not given)
Potency [1]: inconclusive: 35.5 µM [inhibitor, single point]

Cc1cc2ccccn2c1C(C[N+](=O)[O-])c1ccc(N(C)C)cc1 (stereo not given)
Potency [1]: inconclusive: 3.55 µM [activator, single point]

COc1ccc(OCC(=O)c2c[nH]c3ccccc23)cc1
Potency [1]: inactive

O=S1(=O)CCC(S(=O)(=O)N2CCCCCC2)C1 (stereo not given)
Potency [1]: inconclusive: 0.562 µM [activator, full curve, poor fit]

O=C(Cc1c[nH]c2ccccc12)NCc1ccncc1
Potency [1]: inactive

COc1cccc(NC(=O)CSc2nc3ccsc3c(=O)n2-c2ccc(C(=O)O)cc2)c1
Potency [1]: inactive

COc1ccc2oc(=Nc3ccc(C(=O)O)cc3)c(C(=O)NCc3ccco3)cc2c1
Potency [1]: inactive

Cc1ccc(O)c(NC(=O)c2ccccc2-c2ccccc2C(=O)O)c1
Potency [1]: inactive

COc1ccc(N2CCN(C(=O)CSc3ncn[nH]3)CC2)cc1
Potency [1]: inconclusive: 2.51 µM [activator, single point]

CCOC(=O)C(=O)Nc1ccc(OCc2ccccc2)cc1
Potency [1]: inactive

CCC(=O)c1ccc(N2CCN(C(=O)c3ccc(F)cc3)CC2)c(F)c1
Potency [1]: inactive

N#C/C(=C/c1cn(-c2ccccc2)nc1-c1cccc(OCc2ccc(F)cc2)c1)C(=O)NCCCn1ccnc1
Potency [1]: inconclusive: 15.8 µM [inhibitor, partial curve, poor fit]

CC(=O)c1ccc(NC(=O)CC23CC4CC(C2)CC(n2nnc(C)n2)(C4)C3)cc1
Potency [1]: inconclusive: 0.631 µM [inhibitor, full curve, poor fit]

CC1Cc2ccccc2N1Cc1cc(=O)c(OCC(=O)NCCc2ccccc2)co1 (stereo not given)
Potency [1]: inconclusive: 6.31 µM [activator, single point]

CC(=O)N(C)c1cc([N+](=O)[O-])ccc1OCc1ccccc1
Potency [1]: inactive

COc1cccc(C2=CC(c3cccs3)n3nnnc3N2)c1 (stereo not given)
Potency [1]: inconclusive: 2.91 µM [inhibitor, partial curve]

N/C(=N\OC(=O)COc1cc(Cl)c(Cl)cc1Cl)c1ccncc1
Potency [1]: inconclusive: 14.1 µM [activator, partial curve, poor fit]

O=C(O)C1=CCCNC1
activity change, negative = inhibition [1]: inconclusive: -15.9% [inhibitor] | activity change, negative = inhibition (at 37.8 µM (top of the series)): inactive: 14.1%

OC1(c2cccc(C(F)(F)F)c2)CCN(c2ncnc3c2[nH]c2ccccc23)CC1
Potency [1]: inconclusive: 11.6 µM [inhibitor, partial curve, poor fit]

O=C(OCC(=O)c1ccc[nH]1)c1ccc(Cl)c(Cl)c1
Potency [1]: inactive

COc1ccc(CCNC(=O)CCn2c(=O)c3ccccc3n(CC(=O)Nc3ccc(C)cc3C)c2=O)cc1OC
Potency [1]: inactive

Cc1ccc(/C(N)=N/OC(=O)N2c3ccccc3Sc3ccccc32)cc1
Potency [1]: inconclusive: 35.5 µM [inhibitor, single point]

COc1ccccc1NC(=O)C1=C(C)Nc2nc(SCc3ccccc3)nn2C1c1cccnc1 (stereo not given)
Potency [1]: inactive

CCN(CC)C(=O)c1csc(Nc2cccc3ccccc23)n1
Potency [1]: inconclusive: 22.4 µM [inhibitor, single point]

Cc1ccc(-c2csc(NC(=O)CSc3nc4ccccc4c(=O)n3CCCN(C)C)n2)cc1
Potency [1]: inconclusive: 22.4 µM [inhibitor, partial curve, poor fit]

COc1ccc2nc(/C(C#N)=C\c3ccc(Oc4ccc([N+](=O)[O-])cn4)cc3)[nH]c2c1
Potency [1]: inconclusive: 14.1 µM [inhibitor, single point]

O=C(NCCN1CCOCC1)C1CCCN(S(=O)(=O)c2ccc(F)cc2)C1 (stereo not given)
Potency [1]: inconclusive: 35.5 µM [activator, single point]

O=C(NC(=S)Nc1ccccc1N1CCOCC1)c1ccccc1F
Potency [1]: inactive

CC1CCN(c2oc(/C=C/c3ccc(F)cc3)nc2C#N)CC1
Potency [1]: inactive

CC(C)C(c1nnnn1Cc1ccccc1)N(CCCO)Cc1cc2cc3c(cc2[nH]c1=O)OCO3 (stereo not given)
Potency [1]: inactive

CCCOc1ccc(C(=O)Nc2nc(C)c(Cc3ccc4c(c3)OCO4)s2)cc1
Potency [1]: inactive

O=C(COC(=O)c1ccccc1)Nc1ccc(Cl)cc1C(=O)c1ccccc1
Potency [1]: inactive

CC1Cc2ccccc2N1Cc1cc(=O)c(OCC(=O)Nc2ccccc2)co1 (stereo not given)
Potency [1]: inactive

COCCCNc1nc2c(c(=O)n(Cc3cccc(Br)c3)c(=O)n2C)n1C
Potency [1]: inconclusive: 28.2 µM [inhibitor, partial curve, poor fit]

CCCOC(=O)c1ccc(Cn2nnc3sc4c(c3c2=O)CCC(C)C4)cc1 (stereo not given)
Potency [1]: inactive

CC(=O)N(/N=C1\Sc2ccccc2C1=O)c1ccccc1
Potency [1]: inconclusive: 15.8 µM [activator, partial curve, poor fit]

COc1cccc(C(=O)Nc2cccc(-c3nc4ncccc4o3)c2C)c1
Potency [1]: inactive

O=C(CCc1nnc2ccc(NCc3ccccc3Cl)nn12)NC1CCCCC1
Potency [1]: inconclusive: 3.55 µM [activator, partial curve, poor fit]

O=C(NC(=S)NCc1cccnc1)c1cc2ccccc2o1
Potency [1]: inconclusive: 0.562 µM [inhibitor, full curve, poor fit]

CC(C)c1ccc(OCC(=O)NC2=NCCS2)cc1
Potency [1]: inactive

COc1cccc(Nc2nc3cc(Cl)c(Cl)cc3nc2-n2nc(C)cc2C)c1
Potency [1]: inactive

COc1ccc(NC(=O)OC(C)C)cc1
Potency [1]: inconclusive: 7.08 µM [inhibitor, full curve, poor fit]

CC1(C)CC(=O)C2=C(C1)c1c(ccc3ccccc13)NC2c1ccc(Br)o1 (stereo not given)
Potency [1]: inconclusive: 25.1 µM [inhibitor, single point]

CCOC(=O)Cn1c(=O)oc2cc(S(=O)(=O)N3CCN(c4ccc(C(C)=O)cc4)CC3)ccc21
Potency [1]: inconclusive: 5.62 µM [inhibitor, single point]

CCOc1ccc(S(=O)(=O)c2cn(Cc3cc(C)ccc3C)c3ccc(OCC)cc3c2=O)cc1
Potency [1]: inconclusive: 7.94 µM [inhibitor, partial curve, poor fit]

CCC(=O)Oc1ccc2ccccc2c1CNC(=O)c1ccccc1
Potency [1]: inconclusive: 35.5 µM [inhibitor, single point]

O=C(NC(=O)c1ccccc1O)c1ccc(C(F)(F)F)cc1
Potency [1]: inconclusive: 10 µM [inhibitor, partial curve, poor fit]

O=S(=O)(NCCC1=CCCCC1)c1cccc2nsnc12
Potency [1]: inactive

Cc1ccc2c(CC(=O)NCc3ccco3)coc2c1C
Potency [1]: inconclusive: 2 µM [inhibitor, partial curve, poor fit]

CCCCCCCCCn1c2c(c(=N)c3c1CCC3)CCC2
Potency [1]: inconclusive: 2.51 µM [inhibitor, full curve, poor fit]

COCCn1c(C)cc(/C=C2/NC(=O)N(Cc3ccc(C)cc3)C2=O)c1C
Potency [1]: inconclusive: 4.47 µM [inhibitor, partial curve, poor fit]

CCN(CC)CCn1c2c(c(SCC(=O)Nc3nc4ccccc4s3)nc1=O)CCCC2
Potency [1]: inconclusive: 12.6 µM [inhibitor, partial curve, poor fit]

COC(=O)C1=C[C@H]([C@@H](C)[C@H](OC)c2ccccc2Br)[C@H]2[C@H]1c1ccccc1N2C
Potency [1]: inactive

COc1cc(/C=N/NC(=O)c2cc(-c3ccccc3)sc2N)cc(OC)c1OC
Potency [1]: inconclusive: 25.1 µM [inhibitor, single point]

COC(=O)/C=C/COc1ccccc1[N+](=O)[O-]
Potency [1]: inactive

COC(=O)c1c(-c2ccccc2)csc1NC(=O)CSc1ncnc2sc(C)c(C)c12
Potency [1]: inconclusive: 11.2 µM [inhibitor, single point]

O=C(N1CCCCC1)N1CCN(C(=O)N(c2ccccc2)c2ccccc2)CC1
Potency [1]: inconclusive: 16.4 µM [inhibitor, single point]
